In US20260137774A1, “Hepatitis B Virus Receptor OATP and Use Thereof” (priority 2022, published 2026):

Columns and labels:
[1] = biological target: T1, human OATP1B1 (hOATP1B1) (Homo sapiens, UniProt Q9Y6L6); conditions: pH 7.4
T1 sequence (Q9Y6L6 1-691): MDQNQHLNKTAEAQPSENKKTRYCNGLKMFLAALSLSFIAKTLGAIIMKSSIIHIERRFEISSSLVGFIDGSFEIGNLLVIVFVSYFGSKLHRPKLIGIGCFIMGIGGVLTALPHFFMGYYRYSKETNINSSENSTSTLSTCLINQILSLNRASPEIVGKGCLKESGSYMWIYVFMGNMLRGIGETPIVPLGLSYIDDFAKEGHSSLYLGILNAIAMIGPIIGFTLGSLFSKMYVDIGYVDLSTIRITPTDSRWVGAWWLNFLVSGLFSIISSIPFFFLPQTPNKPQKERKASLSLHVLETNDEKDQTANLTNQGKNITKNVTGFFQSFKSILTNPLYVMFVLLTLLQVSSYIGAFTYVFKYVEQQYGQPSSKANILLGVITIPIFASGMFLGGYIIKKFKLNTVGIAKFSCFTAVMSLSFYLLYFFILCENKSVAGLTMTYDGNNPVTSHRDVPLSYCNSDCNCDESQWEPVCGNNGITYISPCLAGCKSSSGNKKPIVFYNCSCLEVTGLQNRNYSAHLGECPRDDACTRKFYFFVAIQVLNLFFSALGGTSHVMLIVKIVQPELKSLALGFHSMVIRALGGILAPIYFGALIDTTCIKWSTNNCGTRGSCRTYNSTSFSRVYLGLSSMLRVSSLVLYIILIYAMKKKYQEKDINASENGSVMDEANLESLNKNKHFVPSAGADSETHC

[2] = biological target: T2, human OATP1B3 (hOATP1B3) (Homo sapiens, UniProt Q9NPD5); conditions: pH 7.4
T2 sequence (Q9NPD5 1-702): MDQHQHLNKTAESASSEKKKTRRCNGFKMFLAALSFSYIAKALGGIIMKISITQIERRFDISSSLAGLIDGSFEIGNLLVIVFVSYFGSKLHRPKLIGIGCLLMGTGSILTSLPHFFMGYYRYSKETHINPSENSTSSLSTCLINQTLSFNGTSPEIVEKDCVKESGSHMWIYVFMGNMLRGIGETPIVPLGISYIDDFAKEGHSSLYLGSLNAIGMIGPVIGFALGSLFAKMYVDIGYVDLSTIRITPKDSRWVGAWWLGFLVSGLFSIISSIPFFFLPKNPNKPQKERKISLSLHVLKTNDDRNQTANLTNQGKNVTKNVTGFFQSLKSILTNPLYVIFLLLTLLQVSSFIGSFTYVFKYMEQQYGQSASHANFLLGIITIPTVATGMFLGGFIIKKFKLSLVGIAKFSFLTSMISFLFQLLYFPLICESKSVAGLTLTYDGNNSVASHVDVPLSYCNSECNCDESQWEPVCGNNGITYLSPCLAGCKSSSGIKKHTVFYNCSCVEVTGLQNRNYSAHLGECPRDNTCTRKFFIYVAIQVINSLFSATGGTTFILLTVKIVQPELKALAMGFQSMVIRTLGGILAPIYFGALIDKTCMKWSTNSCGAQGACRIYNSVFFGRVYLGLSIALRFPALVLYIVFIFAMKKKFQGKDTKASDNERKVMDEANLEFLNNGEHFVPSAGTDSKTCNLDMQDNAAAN

With `CC(C)c1c(C(=O)Nc2ccccc2)c(-c2ccccc2)c(-c2ccc(F)cc2)n1CC[C@@H](O)C[C@@H](O)CC(=O)O` [atorvastatin] the “uptake ratio of drug substrate” value [1] was 6.32 and the “uptake ratio of drug substrate” value [2] was 8.58.
